One assay addresses T1, GFP-tagged LUZP1 (human) (UniProt Q86V48).
T1 sequence: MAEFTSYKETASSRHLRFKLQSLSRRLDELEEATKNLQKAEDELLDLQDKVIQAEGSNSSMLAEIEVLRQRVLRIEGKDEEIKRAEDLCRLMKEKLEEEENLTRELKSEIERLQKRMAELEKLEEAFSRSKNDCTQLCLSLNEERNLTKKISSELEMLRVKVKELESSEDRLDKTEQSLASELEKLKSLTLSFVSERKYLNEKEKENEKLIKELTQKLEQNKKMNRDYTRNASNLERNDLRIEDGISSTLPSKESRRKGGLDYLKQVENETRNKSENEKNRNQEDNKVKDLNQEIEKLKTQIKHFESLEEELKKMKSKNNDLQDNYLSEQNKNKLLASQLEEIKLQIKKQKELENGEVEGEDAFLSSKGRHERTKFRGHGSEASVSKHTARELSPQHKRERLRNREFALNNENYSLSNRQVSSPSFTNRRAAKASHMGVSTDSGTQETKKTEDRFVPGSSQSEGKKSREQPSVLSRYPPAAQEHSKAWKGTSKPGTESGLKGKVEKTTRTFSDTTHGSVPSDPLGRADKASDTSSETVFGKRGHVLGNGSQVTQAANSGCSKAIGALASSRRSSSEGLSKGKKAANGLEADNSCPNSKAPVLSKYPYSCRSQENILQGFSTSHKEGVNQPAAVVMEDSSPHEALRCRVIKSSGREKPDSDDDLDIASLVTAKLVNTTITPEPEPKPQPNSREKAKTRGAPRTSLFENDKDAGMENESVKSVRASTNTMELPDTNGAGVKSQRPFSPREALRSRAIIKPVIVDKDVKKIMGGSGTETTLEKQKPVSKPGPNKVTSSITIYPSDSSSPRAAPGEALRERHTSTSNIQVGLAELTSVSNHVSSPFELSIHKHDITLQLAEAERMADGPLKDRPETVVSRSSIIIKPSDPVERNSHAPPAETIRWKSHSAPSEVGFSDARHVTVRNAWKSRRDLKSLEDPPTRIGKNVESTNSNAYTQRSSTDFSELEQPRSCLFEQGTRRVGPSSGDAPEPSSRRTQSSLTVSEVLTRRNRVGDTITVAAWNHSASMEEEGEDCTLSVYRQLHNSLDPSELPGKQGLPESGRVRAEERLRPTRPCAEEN
As to the kind of experiment: co-IP.

By UniProt entry, the sequences of proteins in these tests, tags left out. Where a name states a change or a piece, a line headed by the entry shows the natural chain unless it says otherwise. Residues count along the entry.
UniProt Q9UHB6: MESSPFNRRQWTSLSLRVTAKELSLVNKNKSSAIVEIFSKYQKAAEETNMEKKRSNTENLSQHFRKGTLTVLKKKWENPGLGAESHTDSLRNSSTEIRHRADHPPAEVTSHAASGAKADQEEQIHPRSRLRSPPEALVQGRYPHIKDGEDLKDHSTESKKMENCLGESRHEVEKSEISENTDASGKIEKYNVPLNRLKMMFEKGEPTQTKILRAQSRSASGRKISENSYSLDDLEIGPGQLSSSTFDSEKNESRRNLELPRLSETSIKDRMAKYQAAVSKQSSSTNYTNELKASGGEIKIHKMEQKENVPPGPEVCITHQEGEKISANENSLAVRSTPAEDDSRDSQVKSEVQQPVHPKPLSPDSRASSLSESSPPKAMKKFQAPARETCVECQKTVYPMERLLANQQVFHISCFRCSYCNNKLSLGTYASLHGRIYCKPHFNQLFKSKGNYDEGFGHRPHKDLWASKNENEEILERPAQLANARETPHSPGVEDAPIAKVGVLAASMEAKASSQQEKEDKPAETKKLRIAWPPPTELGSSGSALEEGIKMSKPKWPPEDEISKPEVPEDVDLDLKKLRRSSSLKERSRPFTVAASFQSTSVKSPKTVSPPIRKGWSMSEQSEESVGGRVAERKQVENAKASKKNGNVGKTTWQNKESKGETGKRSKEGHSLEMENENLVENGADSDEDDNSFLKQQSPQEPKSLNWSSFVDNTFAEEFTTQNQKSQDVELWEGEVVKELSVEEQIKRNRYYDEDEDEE
endogenous EPLIN isoform α: residues 161-759 of Q9UHB6

The target of assay [1] is GFP-EPLINβ (expressed in HEK293 FLAG-LUZP1 lines) (human) (UniProt Q9UHB6). The assay is described as follows: co-IP.

These are yes or no findings as the source states them, for the method shown. Binding seen in cells or lysates may run through a third protein. Some results given as binding are weak or reduced against the parent protein; the word gives no strength. Tags and fused reporters may be left off the sequences shown.

Turning to “endogenous EPLIN isoform α (from UniProt Q9UHB6-2 1-599)”, the binding result with GFP-tagged LUZP1 (human) is on record as “binds”.
Take “endogenous EPLIN isoform β (from UniProt Q9UHB6 1-759)”: the binding entry with GFP-tagged LUZP1 (human) is recorded as “binds”.

B1: FLAG-LUZP1 (aa 1-296) (domain or fragment, UniProt Q86V48-1 1-296)
chain: MAEFTSYKETASSRHLRFKLQSLSRRLDELEEATKNLQKAEDELLDLQDKVIQAEGSNSSMLAEIEVLRQRVLRIEGKDEEIKRAEDLCRLMKEKLEEEENLTRELKSEIERLQKRMAELEKLEEAFSRSKNDCTQLCLSLNEERNLTKKISSELEMLRVKVKELESSEDRLDKTEQSLASELEKLKSLTLSFVSERKYLNEKEKENEKLIKELTQKLEQNKKMNRDYTRNASNLERNDLRIEDGISSTLPSKESRRKGGLDYLKQVENETRNKSENEKNRNQEDNKVKDLNQEIE
As to B1, the binding result in assay [1] was “no binding”.

B2: FLAG-LUZP1 (full length) (protein, UniProt Q86V48-1 1-1076)
chain: T1 sequence
Turning to B2, the binding entry in assay [1] is given as “binds”.

B3: FLAG-LUZP1 (aa 297-1076) (domain or fragment, UniProt Q86V48-1 297-1076)
chain: KLKTQIKHFESLEEELKKMKSKNNDLQDNYLSEQNKNKLLASQLEEIKLQIKKQKELENGEVEGEDAFLSSKGRHERTKFRGHGSEASVSKHTARELSPQHKRERLRNREFALNNENYSLSNRQVSSPSFTNRRAAKASHMGVSTDSGTQETKKTEDRFVPGSSQSEGKKSREQPSVLSRYPPAAQEHSKAWKGTSKPGTESGLKGKVEKTTRTFSDTTHGSVPSDPLGRADKASDTSSETVFGKRGHVLGNGSQVTQAANSGCSKAIGALASSRRSSSEGLSKGKKAANGLEADNSCPNSKAPVLSKYPYSCRSQENILQGFSTSHKEGVNQPAAVVMEDSSPHEALRCRVIKSSGREKPDSDDDLDIASLVTAKLVNTTITPEPEPKPQPNSREKAKTRGAPRTSLFENDKDAGMENESVKSVRASTNTMELPDTNGAGVKSQRPFSPREALRSRAIIKPVIVDKDVKKIMGGSGTETTLEKQKPVSKPGPNKVTSSITIYPSDSSSPRAAPGEALRERHTSTSNIQVGLAELTSVSNHVSSPFELSIHKHDITLQLAEAERMADGPLKDRPETVVSRSSIIIKPSDPVERNSHAPPAETIRWKSHSAPSEVGFSDARHVTVRNAWKSRRDLKSLEDPPTRIGKNVESTNSNAYTQRSSTDFSELEQPRSCLFEQGTRRVGPSSGDAPEPSSRRTQSSLTVSEVLTRRNRVGDTITVAAWNHSASMEEEGEDCTLSVYRQLHNSLDPSELPGKQGLPESGRVRAEERLRPTRPCAEEN
Regarding B3, the binding entry in assay [1] is on record as “binds”.

The record behind these values is article doi:10.1101/736389.
